Laboratory results taken from the supplement of paper PMC7125110.
± gives the standard error. Many of these values have a large error.

B1: glmS ribozyme (parent)
chain: AUAAAAGCGCCAGAACUACAGAAAUGUAGUUGACGAGGAGGAGGUUUAUCGAAUUUUCGGCGGAUGCCUCCAAA

Variants of: B1
Assay: kcat; higher = faster cleavage; RNA array
Details: with glucosamine-6-phosphate
How it was run: (§1)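 Barcoded ribozyme variants were transcribed in situ on sequenced MiSeq chips by E. coli RNA polymerase. At 37 °C, a hybridised Cy3 probe tracked them while glucosamine-6-phosphate (40 μM to 10 mM) in HEPES/KCl/Mg(OAc)2 buffer flowed in and tiles were imaged over ~14 h. Per-tile medians of signals normalised to baseline and to non-cleaving reference variants were fit to one- or two-exponential decays, giving kobs. kcat and KM came from weighted Michaelis–Menten fits across concentrations.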
With U30A U56G the kcat was 0.00495 ± 0.0034 s⁻¹.
A36C U54A was tested, and the kcat was less than 1e-05 s⁻¹.
Work on A12U G29A yielded a kcat of 0.00565 ± 0.004 s⁻¹.
Work on U31A U65C yielded a kcat of 0.000791 ± 0.00041 s⁻¹.
In the case of C10A U69A, the kcat is reported as 6.07e-05 ± 3.2e-05 s⁻¹.
G13C A14C C61A C67U showed a kcat of 3.08e-05 ± 1.3e-05 s⁻¹.
G37A U45C showed a kcat of 0.000199 ± 0.00011 s⁻¹.
U31G A39G showed a kcat of 0.0429 ± 0.027 s⁻¹.
A14G A53G gave a kcat of 0.0255 ± 0.013 s⁻¹.
A20U G32C was tested, and the kcat was 0.000241 ± 0.00017 s⁻¹.
For G37C C61G, the kcat was less than 1e-05 s⁻¹.
A15U U65A was tested, and the kcat was 0.000377 ± 6.3e-05 s⁻¹.
C11G C70A gave a kcat of 2.77e-05 ± 1.9e-05 s⁻¹.
For C11U G38A C67G, the kcat was 3.91e-05 ± 2.1e-05 s⁻¹.
A12G A14U G32U G60A G66U gave a kcat of less than 1e-05 s⁻¹.
Variant G37A U47G U55G has a kcat of 0.000459 ± 0.00013 s⁻¹.
Work on G38A U55A yielded a kcat of 4.66e-05 ± 2.8e-05 s⁻¹.
Work on G32U U46C yielded a kcat of 0.000671 ± 0.00047 s⁻¹.
Variant A14G G66A has a kcat of 0.00673 ± 0.0035 s⁻¹.
For A15U C71U, the kcat was 0.0101 ± 0.0091 s⁻¹.
For A15U A53G, the kcat was 0.00765 ± 0.0013 s⁻¹.
A14G G32C U49G showed a kcat of 1.97e-05 ± 1.3e-05 s⁻¹.
G38U U47C showed a kcat of less than 1e-05 s⁻¹.
A33U A53U U69G gave a kcat of 4.06e-05 ± 2.5e-05 s⁻¹.
With C11G U69G the kcat was 6.17e-05 ± 3.2e-05 s⁻¹.
In the case of C16G U46A, the kcat is reported as 0.000198 ± 1.7e-05 s⁻¹.
G38C G63U was tested, and the kcat was less than 1e-05 s⁻¹.
For G32A C71U, the kcat was 0.00395 ± 0.001 s⁻¹.
Variant A14C G32U has a kcat of 0.0014 ± 6.9e-05 s⁻¹.
Work on G32U C50G yielded a kcat of 2.96e-05 ± 1.7e-05 s⁻¹.
A15C U57A C67G gave a kcat of 3.31e-05 ± 1.8e-05 s⁻¹.
Variant G37C G38A has a kcat of 1.34e-05 ± 1e-05 s⁻¹.
Work on G37U G66C C68A yielded a kcat of 2.9e-05 ± 2.2e-05 s⁻¹.
C11G C58U was tested, and the kcat was 1.49e-05 ± 8e-06 s⁻¹.
For A12C C16G, the kcat was 0.0065 ± 0.0038 s⁻¹.
Work on G9U G44C yielded a kcat of less than 1e-05 s⁻¹.
G13A C50G was tested, and the kcat was 4.75e-05 ± 2.8e-05 s⁻¹.
Work on A14G G29C U56A yielded a kcat of 0.00138 ± 0.00036 s⁻¹.
Variant C10U C71A has a kcat of 1.16e-05 ± 6.3e-06 s⁻¹.
For U30G A53C, the kcat was 0.00231 ± 0.0004 s⁻¹.
Variant C16U G37A has a kcat of 0.00345 ± 0.0021 s⁻¹.
Work on A14U G37A A52G C68G yielded a kcat of 1.04e-05 ± 7.2e-06 s⁻¹.
With A14C C16G the kcat was 8.6e-05 ± 5.5e-06 s⁻¹.
Variant G37U C67A has a kcat of less than 1e-05 s⁻¹.
Work on A6U G51C U69G yielded a kcat of 3.25e-05 ± 1.8e-05 s⁻¹.
G37A U65A gave a kcat of 0.000179 ± 2.2e-05 s⁻¹.
In the case of A12G G44A, the kcat is reported as 2.03e-05 ± 1e-05 s⁻¹.
Work on A12C A14G yielded a kcat of 0.0399 ± 0.022 s⁻¹.
In the case of G13A A15C, the kcat is reported as 0.000242 ± 3.2e-05 s⁻¹.
Variant G13A A15G has a kcat of 0.000875 ± 0.00018 s⁻¹.
Work on A15U G41U A42G U57C C70A yielded a kcat of 4.33e-05 ± 2.9e-05 s⁻¹.
For U31C U56G, the kcat was 0.00563 ± 0.004 s⁻¹.
A12C G37U G66U showed a kcat of 1.03e-05 ± 6.6e-06 s⁻¹.
Variant U31A A48C has a kcat of 0.000149 ± 3.3e-05 s⁻¹.
Work on A14G C34U C68G yielded a kcat of 4.51e-05 ± 2.3e-05 s⁻¹.
U31G U55G was tested, and the kcat was 0.0235 ± 0.016 s⁻¹.
In the case of U31A C67A, the kcat is reported as 0.00369 ± 0.0019 s⁻¹.
A14G U54G gave a kcat of 0.0236 ± 0.018 s⁻¹.
In the case of A39C C71A, the kcat is reported as 6.38e-05 ± 6.4e-06 s⁻¹.
Work on U31G G32A yielded a kcat of 0.00438 ± 0.0035 s⁻¹.
A15G C16G A42G C67G gave a kcat of 0.000168 ± 0.00011 s⁻¹.
G37U C70U C71U showed a kcat of 1.13e-05 ± 3.2e-06 s⁻¹.
C16A G51U U69G gave a kcat of 6.68e-05 ± 4.7e-05 s⁻¹.

Variants of: B1
Assay: KM; higher = weaker cofactor use; RNA array
Details: with glucosamine-6-phosphate
How it was run: as §1
For U30A U56G, the KM was 2980 ± 2600 µM.
With U31A U65C the KM was 10800 ± 7800 µM.
Variant G37A U45C has a KM of 3830 ± 3500 µM.
U31G A39G was tested, and the KM was 4690 ± 3200 µM.
For A14G A53G, the KM was 635 ± 440 µM.
A15U U65A was tested, and the KM was 1080 ± 410 µM.
Variant G37A U47G U55G has a KM of 2730 ± 1400 µM.
With G32U U46C the KM was 39500 ± 34000 µM.
Work on A14G G66A yielded a KM of 242 ± 180 µM.
Variant A15U A53G has a KM of 1990 ± 520 µM.
C16G U46A was tested, and the KM was 676 ± 180 µM.
G32A C71U was tested, and the KM was 4470 ± 1500 µM.
A14C G32U showed a KM of 3610 ± 300 µM.
In the case of A12C C16G, the KM is reported as 5060 ± 3700 µM.
Work on A14G G29C U56A yielded a KM of 1960 ± 970 µM.
Variant U30G A53C has a KM of 2690 ± 910 µM.
In the case of C16U G37A, the KM is reported as 3880 ± 2900 µM.
In the case of A14C C16G, the KM is reported as 438 ± 180 µM.
In the case of G37A U65A, the KM is reported as 4340 ± 1300 µM.
Work on A12C A14G yielded a KM of 3770 ± 2600 µM.
G13A A15C was tested, and the KM was 2680 ± 760 µM.
Work on G13A A15G yielded a KM of 1840 ± 670 µM.
Variant U31A A48C has a KM of 1780 ± 980 µM.
U31G U55G was tested, and the KM was 3760 ± 3100 µM.
For U31A C67A, the KM was 1610 ± 1100 µM.
A14G U54G gave a KM of 973 ± 960 µM.
Variant A39C C71A has a KM of 1930 ± 720 µM.

Variants of: B1
Assay: self-cleavage kobs at 40 uM GlcN6P; higher = faster cleavage; RNA array
Details: with glucosamine-6-phosphate
How it was run: as §1
In the case of U30A U56G, the “self-cleavage kobs at 40 uM GlcN6P” value is reported as 6.91e-05 ± 3.7e-05 s⁻¹.
With C10A U69A the “self-cleavage kobs at 40 uM GlcN6P” value was 2.2e-05 ± 1.9e-05 s⁻¹.
For A14C G32U, the “self-cleavage kobs at 40 uM GlcN6P” value was 2.17e-05 ± 1.4e-05 s⁻¹.
G32U C50G was tested, and the “self-cleavage kobs at 40 uM GlcN6P” value was 2.31e-05 ± 1.6e-05 s⁻¹.
In the case of G13A C50G, the “self-cleavage kobs at 40 uM GlcN6P” value is reported as 3.31e-05 ± 2.2e-05 s⁻¹.
In the case of U30G A53C, the “self-cleavage kobs at 40 uM GlcN6P” value is reported as 1.69e-05 ± 1.2e-05 s⁻¹.
U31G G32A was tested, and the “self-cleavage kobs at 40 uM GlcN6P” value was 1.39e-05 ± 1.1e-05 s⁻¹.

Variants of: B1
Assay: self-cleavage kobs at 10000 uM GlcN6P; higher = faster cleavage; RNA array
Details: with glucosamine-6-phosphate
How it was run: as §1
For U30A U56G, the “self-cleavage kobs at 10000 uM GlcN6P” value was 0.00943 ± 0.0064 s⁻¹.
In the case of U31G A39G, the “self-cleavage kobs at 10000 uM GlcN6P” value is reported as 0.077 ± 0.064 s⁻¹.
C11G U69G was tested, and the “self-cleavage kobs at 10000 uM GlcN6P” value was 2.05e-05 ± 1.2e-05 s⁻¹.
A12G G44A was tested, and the “self-cleavage kobs at 10000 uM GlcN6P” value was 1.39e-05 ± 1.2e-05 s⁻¹.
For A15U G41U A42G U57C C70A, the “self-cleavage kobs at 10000 uM GlcN6P” value was 2.7e-05 ± 1.6e-05 s⁻¹.

Variants of: B1
Assay: self-cleavage kobs at 160 uM GlcN6P; higher = faster cleavage; RNA array
Details: with glucosamine-6-phosphate
How it was run: as §1
C10A U69A was tested, and the “self-cleavage kobs at 160 uM GlcN6P” value was 3.26e-05 ± 2.1e-05 s⁻¹.
For C11G C70A, the “self-cleavage kobs at 160 uM GlcN6P” value was 0.000503 ± 0.00028 s⁻¹.
With G37U G66C C68A the “self-cleavage kobs at 160 uM GlcN6P” value was 2.05e-05 ± 1.9e-05 s⁻¹.

Variants of: B1
Assay: self-cleavage kobs at 2500 uM GlcN6P; higher = faster cleavage; RNA array
Details: with glucosamine-6-phosphate
How it was run: as §1
In the case of C11G C70A, the “self-cleavage kobs at 2500 uM GlcN6P” value is reported as 0.000256 ± 0.00014 s⁻¹.
With G38A U55A the “self-cleavage kobs at 2500 uM GlcN6P” value was 3.49e-05 ± 2.5e-05 s⁻¹.
G32U C50G was tested, and the “self-cleavage kobs at 2500 uM GlcN6P” value was 0.000336 ± 0.00024 s⁻¹.
With G37U G66C C68A the “self-cleavage kobs at 2500 uM GlcN6P” value was 3.28e-05 ± 2.7e-05 s⁻¹.

Variants of: B1
Assay: self-cleavage kobs at 640 uM GlcN6P; higher = faster cleavage; RNA array
Details: with glucosamine-6-phosphate
How it was run: as §1
A6U G51C U69G was tested, and the “self-cleavage kobs at 640 uM GlcN6P” value was 5.61e-05 ± 3e-05 s⁻¹.
In the case of G37A U65A, the “self-cleavage kobs at 640 uM GlcN6P” value is reported as 1.74e-05 ± 1.1e-05 s⁻¹.
For A14G C34U C68G, the “self-cleavage kobs at 640 uM GlcN6P” value was 3.17e-05 ± 2.9e-05 s⁻¹.
For A39C C71A, the “self-cleavage kobs at 640 uM GlcN6P” value was 1.06e-05 ± 9.9e-06 s⁻¹.
